The target in assay [1] is PARK7/DJ-1 (human (endogenous in primary Tregs/Teffs)) (UniProt Q99497). Nature of the assay: co-IP.
Assay [2] shares this target. Nature of the assay: co-IP. The source holds these as a separate data set.

Protein sequences, listed by entry. Tags and fused reporters are not part of them.
UniProt Q99497: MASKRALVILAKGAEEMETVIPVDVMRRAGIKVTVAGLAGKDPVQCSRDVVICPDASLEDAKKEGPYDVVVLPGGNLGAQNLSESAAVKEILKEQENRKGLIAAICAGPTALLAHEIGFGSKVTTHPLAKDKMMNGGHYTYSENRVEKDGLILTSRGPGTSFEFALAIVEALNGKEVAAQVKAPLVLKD

Where two headings read alike, the source gives them in different places. Results are given in words; binding and its absence hold for the method and conditions named. In cells and extracts the contact can be indirect. Some results given as binding are weak or reduced against the parent protein; the word gives no strength.

B1: pyruvate dehydrogenase (lipoamide) beta (protein, UniProt P11177 31-359)
chain: LQVTVRDAINQGMDEELERDEKVFLLGEEVAQYDGAYKVSRGLWKKYGDKRIIDTPISEMGFAGIAVGAAMAGLRPICEFMTFNFSMQAIDQVINSAAKTYYMSGGLQPVPIVFRGPNGASAGVAAQHSQCFAAWYGHCPGLKVVSPWNSEDAKGLIKSAIRDNNPVVVLENELMYGVPFEFPPEAQSKDFLIPIGKAKIERQGTHITVVSHSRPVGHCLEAAAVLSKEGVECEVINMRTIRPMDMETIEASVMKTNHLVTVEGGWPQFGVGAEICARIMEGPAFNFLDAPAVRVTGADVPMPYAKILEDNSIPQVKDIIFAIKKTLNI
In the case of B1, the figures for the binding result in assay [1] and in assay [2] were “binds weakly” and “binds”, respectively.

These data come from publication doi:10.1101/2019.12.20.884809.
